Source: patent US20110172147A1 (priority 2009, published 2011)

Assays:
[1] = general procedure: Fmoc solid-phase peptide synthesis; Rink Amide Resin; HBTU and DIC preferred, with HOBt; details: whole synthesis, scale 0.25 mmol, 1:3 TFA
[2] = general procedure: Fmoc solid-phase peptide synthesis; Fmoc-Linker-BHA resin (Rink linker); Rink Amide Resin; HBTU and DIC preferred, with HOBt; details: whole synthesis, scale 0.22 mmol

Substance | isolated mass ([2]; 1:2 TFA) [mg] | isolated yield ([2]; 1:2 TFA) [%] | isolated mass ([2]; 1:3 TFA) [mg] | isolated yield ([2]; 1:3 TFA) [%] | further results
Eicosanoyl-Glu-Glu-Ile-Lys[CH3—(OCH2CH2)23—O—(CH2)2—CO]-Pqa-Arg-His-Tyr-His-Asn-Trp-Val-Thr-Arg-Gln-Arg-Tyr-NH2 1:3 TFA | – | – | – | – | isolated mass [1]: 490 mg; isolated yield [1]: 70%
Eicosanoyl-Glu-Glu-Ile-Lys[CH3—(OCH2CH2)23—O—(CH2)2—CO]-Pqa-Cit-His-Tyr-Leu-Asn-Trp-Val-Thr-Arg-Gln-(NMe)-Arg-Tyr-NH2 1:2 TFA | 49 | 6 | – | – | –
Eicosanoyl-gammaGlu-gammaGlu-Ile-Lys[CH3—(OCH2CH2)11—O—(CH2)2—CO]-Pqa-Arg-His-Tyr-Leu-Asn-Trp-Val-Thr-Arg-Gln-(NMe)-Arg-Tyr-NH2 1:3 TFA | – | – | 86 | 13 | –
Eicosanoyl-gammaGlu-gammaGlu-Ile-Lys[CH3—(OCH2CH2)15—O—(CH2)2—CO]-Pqa-Arg-His-Tyr-Leu-Asn-Trp-Val-Thr-Arg-Gln-(NMe)-Arg-Tyr-NH2 1:3 TFA | – | – | 42 | 6 | –
Eicosanoyl-gammaGlu-gammaGlu-Ile-Lys[CH3—(OCH2CH2)23—O—(CH2)2—CO]-Pqa-Arg-His-Tyr-Leu-Asn-Trp-Val-Thr-Arg-Gln-(NMe)-Arg-Tyr-NH2 1:3 TFA | – | – | 33 | 4 | –
Eicosanoyl-gammaGlu-gammaGlu-Ile-Lys[CH3—(OCH2CH2)23—O—(CH2)2—CO]-Pqa-Cit-His-Tyr-Leu-Asn-Trp-Val-Thr-Arg-Gln-(NMe)-Arg-Tyr-NH2 1:2 TFA | 81 | 11 | – | – | –
Lauroyl-6Ahx-Ile-Lys[CH3—(OCH2CH2)23—O—(CH2)2—CO]-Pqa-Cit-His-Tyr-Leu-Asn-Trp-Val-Thr-Arg-Gln-(NMe)-Arg-Tyr-NH2 1:2 TFA | 63 | 9 | – | – | –
Myristoyl-6Ahx-Ile-Lys[CH3—(OCH2CH2)23—O—(CH2)2—CO]-Pqa-Cit-His-Tyr-Leu-Asn-Trp-Val-Thr-Arg-Gln-(NMe)-Arg-Tyr-NH2 1:2 TFA | 43 | 6 | – | – | –
Palmitoyl-6Ahx-6Ahx-(D)alloIle-Lys[CH3—(OCH2CH2)23—O—(CH2)2—CO]-Pqa-Arg-His-Tyr-Leu-Asn-Trp-Val-Thr-Arg-Gln-(NMe)-Arg-Tyr-NH2 1:3 TFA | – | – | 85 | 11 | –
Palmitoyl-6Ahx-6Ahx-Ile-Lys[CH3—(OCH2CH2)11—O—(CH2)2—CO]-Pqa-Arg-His-Tyr-Leu-Asn-Trp-Val-Thr-Arg-Gln-(NMe)-Arg-Tyr-NH2 1:3 TFA | – | – | 100 | 15 | –
Palmitoyl-6Ahx-6Ahx-Ile-Lys[CH3—(OCH2CH2)15—O—(CH2)2—CO]-Pqa-Arg-His-Tyr-Leu-Asn-Trp-Val-Thr-Arg-Gln-(NMe)-Arg-Tyr-NH2 1:3 TFA | – | – | 54 | 8 | –
Palmitoyl-6Ahx-6Ahx-Ile-Lys[CH3—(OCH2CH2)23—O—(CH2)2—CO]-Pqa-Arg-His-Tyr-Leu-Asn-Trp-Val-Thr-Arg-Gln-(NMe)-Arg-Tyr-NH2 1:3 TFA | – | – | 56 | 7 | –
Palmitoyl-6Ahx-Ile-Lys[CH3—(OCH2CH2)7—O—(CH2)2—CO]-Pqa-Cit-His-Tyr-Leu-Asn-Trp-Val-Thr-Arg-Gln-(NMe)-Arg-Tyr-NH2 1:2 TFA | 73 | 12 | – | – | –
Palmitoyl-6Ahx-Ile-Lys[CH3—(OCH2CH2)11—O—(CH2)2—CO]-Pqa-Cit-His-Tyr-Leu-Asn-Trp-Val-Thr-Arg-Gln-(NMe)-Arg-Tyr-NH2 1:2 TFA | 46 | 16 | – | – | –
Palmitoyl-6Ahx-Ile-Lys[CH3—(OCH2CH2)15—O—(CH2)2—CO]-Pqa-Cit-His-Tyr-Leu-Asn-Trp-Val-Thr-Arg-Gln-(NMe)-Arg-Tyr-NH2 1:2 TFA | 32 | 5 | – | – | –
Palmitoyl-6Ahx-Ile-Lys[CH3—(OCH2CH2)23—O—(CH2)2—CO]-Pqa-Arg-His-Tyr-Leu-Asn-Trp-Val-Thr-Arg-Gln-(NMe)-Arg-Tyr-NH2 1:3 TFA | – | – | 66 | 9 | –
Palmitoyl-6Ahx-NH—CH2CH2—(OCH2CH2)23—O—(CH2)2—CO-Ile-Lys-Pqa-Arg-His-Tyr-Leu-Asn-Trp-Val-Thr-Arg-Gln-(NMe)-Arg-Tyr-NH2 1:3 TFA | – | – | 55 | 7 | –
